# Results are given in words; binding and its absence hold for the method and conditions named. For some assays here: In cells and extracts the contact can be indirect. Some results given as binding are weak or reduced against the parent protein; the word gives no strength.
# Sequences of proteins named here, by UniProt entry; tags and fusion partners are left off. A change or cut given only in a name is not applied to a line headed by its entry. Residues count along the entry.
# UniProt Q9H6X2: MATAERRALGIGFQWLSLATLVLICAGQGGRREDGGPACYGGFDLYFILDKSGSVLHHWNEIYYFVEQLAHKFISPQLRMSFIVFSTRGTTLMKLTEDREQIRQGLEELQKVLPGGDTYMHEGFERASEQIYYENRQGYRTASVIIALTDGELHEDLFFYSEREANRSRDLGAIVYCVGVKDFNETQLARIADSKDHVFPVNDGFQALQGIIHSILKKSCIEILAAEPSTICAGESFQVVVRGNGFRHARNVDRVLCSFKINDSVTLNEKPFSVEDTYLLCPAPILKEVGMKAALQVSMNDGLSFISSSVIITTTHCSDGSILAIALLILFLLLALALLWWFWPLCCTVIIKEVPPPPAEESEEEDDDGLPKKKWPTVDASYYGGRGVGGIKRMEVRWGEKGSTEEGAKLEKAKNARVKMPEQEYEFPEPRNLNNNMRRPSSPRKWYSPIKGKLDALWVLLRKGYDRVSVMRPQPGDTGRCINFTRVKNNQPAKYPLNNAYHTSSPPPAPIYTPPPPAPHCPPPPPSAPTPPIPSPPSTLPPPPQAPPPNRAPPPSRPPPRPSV
# TEM8, endogenous in HepG2 hepatoma cells (human (endogenous in HepG2)): residues 33-564 of Q9H6X2
# UniProt P02769, residues 25-607: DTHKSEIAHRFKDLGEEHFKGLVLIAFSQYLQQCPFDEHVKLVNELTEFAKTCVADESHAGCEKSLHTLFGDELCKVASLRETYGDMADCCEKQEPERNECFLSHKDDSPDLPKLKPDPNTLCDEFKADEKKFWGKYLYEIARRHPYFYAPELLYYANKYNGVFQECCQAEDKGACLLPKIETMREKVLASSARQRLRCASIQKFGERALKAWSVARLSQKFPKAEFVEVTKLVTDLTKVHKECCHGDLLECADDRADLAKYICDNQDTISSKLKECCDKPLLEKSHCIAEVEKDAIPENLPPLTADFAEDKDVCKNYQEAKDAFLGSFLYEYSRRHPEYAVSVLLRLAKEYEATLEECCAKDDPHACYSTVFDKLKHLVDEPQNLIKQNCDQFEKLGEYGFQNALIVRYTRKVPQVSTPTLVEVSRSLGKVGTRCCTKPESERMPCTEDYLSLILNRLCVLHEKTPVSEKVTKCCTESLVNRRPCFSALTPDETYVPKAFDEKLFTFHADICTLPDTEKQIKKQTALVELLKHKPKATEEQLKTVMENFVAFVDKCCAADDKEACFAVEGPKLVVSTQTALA
# Columns and labels:
# [1] = target: TEM8-Fc, a recombinant fusion protein comprising the extracellular domain of human TEM8 linked to the Fc portion of human IgG1 (human) (UniProt Q9H6X2); assay: SPR; BIAcore 2000; TEM8-Fc amine-coupled on a CM5 chip (about 5,000 RU); analytes in PBS with or without 2 mM MnCl2, 30 ul/min; Herceptin surface as background control; both purified
# [2] = target: TEM8, endogenous in HepG2 hepatoma cells (human (endogenous in HepG2)) (UniProt Q9H6X2); assay: co-IP; HepG2 cells treated with LMW-uPA (doses); lysates immunoprecipitated by TEM8 antibody, immunoblot with EGFR antibody
Substance,binding [1],binding [2]
BSA (from UniProt P02769 25-607),no binding,
"EGFR, endogenous in HepG2 cells (from UniProt P00533 25-1210) (receptor)",,binds

# — PMC6151050
